Measurements published in US20260209346A1 (LTZ THERAPEUTICS, published 2026).
These are yes or no findings as the source states them, for the method shown. Some binding calls cover weakened binding; strength is not graded here.

What was measured:
[1] = target: CD79b short isoform (125 amino acids, deletion of exon 3) expressed on Nalm-6 cells (Homo sapiens (Human)) (UniProt P40259); assay: flow cytometry histogram, NALM6 cells electroporated with the CD79b short isoform plasmid; Anti-CD79b-PE
[2] = target: CD79b endogenously expressed on the cell surface (malignant B cell lines, normal B cells in PBMC, CLL patients' B lymphocytes) (human) (UniProt P40259); assay: flow cytometry on CLL patients' PBMC
[3] = target: CD79b short isoform (125 amino acids, deletion of exon 3) expressed on Nalm-6 cells (Homo sapiens (Human)) (UniProt P40259); assay: flow cytometry on Nalm-6 cells electroporated with the short isoform
[4] = target: CD79b long isoform (wild type, 229 amino acids) expressed on Nalm-6 cells (Homo sapiens (Human)) (UniProt P40259); assay: flow cytometry on Nalm-6 cells electroporated with the long isoform
[5] = target: CD79b endogenously expressed on the cell surface (malignant B cell lines, normal B cells in PBMC, CLL patients' B lymphocytes) (human) (UniProt P40259); assay: flow cytometry histogram, untransfected NALM6 cells; Anti-CD79b-PE
[6] = target: CD79b endogenously expressed on the cell surface (malignant B cell lines, normal B cells in PBMC, CLL patients' B lymphocytes) (human) (UniProt P40259); assay: flow cytometry on malignant B cell lines
[7] = target: CD79b long isoform (wild type, 229 amino acids) expressed on Nalm-6 cells (Homo sapiens (Human)) (UniProt P40259); assay: flow cytometry histogram, NALM6 cells electroporated with the CD79b long isoform plasmid; Anti-CD79b-PE
[8] = target: CD79b endogenously expressed on the cell surface (malignant B cell lines, normal B cells in PBMC, CLL patients' B lymphocytes) (human) (UniProt P40259); assay: flow cytometry on CD19+ B cells in PBMC of 4 donors
[9] = target: T1, cynomolgus CD79b recombinant protein (cynomolgus); assay: ELISA; cynomolgus CD79b recombinant protein coated at 1 ug/ml; anti-human IgG HRP; OD 450 nm
T1 chain: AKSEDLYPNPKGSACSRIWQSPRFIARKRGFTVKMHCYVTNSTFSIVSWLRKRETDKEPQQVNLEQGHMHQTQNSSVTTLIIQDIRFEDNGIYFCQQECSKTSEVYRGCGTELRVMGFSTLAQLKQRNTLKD
Protocol: Binding affinities of anti-CD79b antibodies to human and cynomolgus CD79b recombinant proteins were tested by ELISA. 1 ug/ml (in PBS buffer) of human or cynomolgus CD79b recombinant proteins were coated on an ELISA plate overnight. ELISA plates were washed and blocked with blocking buffer (PBS+1% BSA) followed by incubation with serially diluted anti-CD79b primary antibodies. Anti-CD79b antibody binding was quantified using an anti-human IgG HRP secondary antibody (Biolegend Catalog #410902) and HRP substrate.

[10] = target: CD79b endogenously expressed on the cell surface (malignant B cell lines, normal B cells in PBMC, CLL patients' B lymphocytes) (human) (UniProt P40259); assay: flow cytometry on a cell line expressing endogenous CD79b (not named on the sheet or in the text); MFI (PE)
[11] = target: T2, human CD79b recombinant protein (human, UniProt P40259 29-159); assay: ELISA on recombinant human CD79b ECD; A 450nm
T2 construct: also called human CD79b ECD antigen; recombinant human CD79b ECD
T2 sequence: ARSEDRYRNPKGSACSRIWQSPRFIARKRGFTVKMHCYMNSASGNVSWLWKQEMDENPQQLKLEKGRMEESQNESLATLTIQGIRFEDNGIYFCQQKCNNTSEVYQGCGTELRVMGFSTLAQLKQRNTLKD

[12] = target: T2, human CD79b recombinant protein; assay: ELISA; human CD79b recombinant protein coated at 1 ug/ml; anti-human IgG HRP; OD 450 nm
[13] = target: CD79b endogenously expressed on the cell surface (malignant B cell lines, normal B cells in PBMC, CLL patients' B lymphocytes) (human) (UniProt P40259); assay: flow cytometry on PBMC of CLL Donor 5716 (B lymphocytes); PE goat anti-human IgG Fc; MFI PE
[14] = target: CD79b endogenously expressed on the cell surface (malignant B cell lines, normal B cells in PBMC, CLL patients' B lymphocytes) (human) (UniProt P40259); assay: flow cytometry on PBMC of CLL Donor 0255 (B lymphocytes); PE goat anti-human IgG Fc; MFI PE

Measured: binding

B1: ch23D8 (antibody, human IgG1, kappa, V domains shown)
VH: QSLEESGGGLVTPGGTLTLTCTVSGLSLSSNAINWVRQAPGKGLEWIGMIYSGGRIEYASWAKGRFTISKTSTTVDLKITSPTTEDTATYFCAKGMSPSAHSSDIWGPGTLVTVSA
VL: AYDMTQTPASVEVAVGGTVTIKCQASQSISDNLSWYQQKPGQPPKLLIYDASDLASGVPSRFSGSGSGTEFTLTISDLEPADAATYYCQQDWISSNVDNTFGGGTEVVVKR
notes: Rabbit/human chimeric IgG1 kappa; also called chimeric 23D8
binds: [1] | [2] | [3] | [4] | [5] | [6] | [7] | [8] | [9] | [10] | [11] | [12] | [13] | [14]
